Test results published in article PMC8429552.
No constants are given. Whether binding was seen depends on the method and setting. In cells and extracts the contact can be indirect. Some binding calls cover weakened binding; strength is not graded here.

Sequences of proteins named here, by UniProt entry; tags and fusion partners are left off.
UniProt P60953: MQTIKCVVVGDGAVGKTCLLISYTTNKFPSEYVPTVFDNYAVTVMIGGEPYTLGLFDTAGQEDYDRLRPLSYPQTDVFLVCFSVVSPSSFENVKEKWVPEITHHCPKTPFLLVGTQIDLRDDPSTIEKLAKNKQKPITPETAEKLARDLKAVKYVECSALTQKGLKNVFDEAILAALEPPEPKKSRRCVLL
UniProt O00401: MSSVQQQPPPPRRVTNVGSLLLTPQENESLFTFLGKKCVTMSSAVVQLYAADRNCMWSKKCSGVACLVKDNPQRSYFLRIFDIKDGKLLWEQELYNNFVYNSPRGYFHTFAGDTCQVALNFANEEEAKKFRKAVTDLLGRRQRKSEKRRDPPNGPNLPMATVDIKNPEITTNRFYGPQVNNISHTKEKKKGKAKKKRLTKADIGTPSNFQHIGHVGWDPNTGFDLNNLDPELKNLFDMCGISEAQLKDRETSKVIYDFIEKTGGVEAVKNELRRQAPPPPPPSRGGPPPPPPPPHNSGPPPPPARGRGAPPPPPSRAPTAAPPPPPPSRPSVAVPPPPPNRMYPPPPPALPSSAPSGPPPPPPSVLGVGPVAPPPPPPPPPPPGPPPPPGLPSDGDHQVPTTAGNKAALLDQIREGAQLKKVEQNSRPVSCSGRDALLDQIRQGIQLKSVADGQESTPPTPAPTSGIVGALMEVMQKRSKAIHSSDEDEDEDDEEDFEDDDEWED

Biological target: Flag-tagged wild-type Cdc42 (human) (UniProt P60953)
Experiment: co-IP; Flag-tagged Cdc42 precipitated from HEK293 lysate on anti-Flag M2-agarose (co-IP buffer, 4 °C, 90 min), Western blot; for the effectors cells were in serum-free medium overnight, then basal or given 10 ng/ml EGF or 50 ng/ml PMA for 2 min

binding: binds
Substance: N-WASP (from UniProt O00401 1-505)
